Assay results from doi:10.1101/2024.06.26.600780.
These are yes or no findings as the source states them, for the method shown. Binding seen in cells or lysates may run through a third protein. Some binding calls cover weakened binding; strength is not graded here. Where a sequence is shown, tags or fusion partners need not be part of it.

Legend:
Nb776 (llama) = experiment: pull-down
Nb777 (llama) = experiment: pull-down

B1: EGFP-fused mouse brain membrane protein IgSF8 (protein, UniProt Q8R366 26-611)
chain: RQVHVPRGPLYRVAGTAVSISCNVSDYEGPAQQDFEWFMYRPEAPATSLGIVSTKDSQFSYAVFGPRVASGDLQVQRLKGDSVVLKIARLQAQDSGFYECYTPSTDTQYLGNYSAKVELRVLPDELQVSAAPPGPRGRQAATSPSRLTVHEGQELALGCLAQTKTKKHTHLSVSFGRAIPEAPVGRATLQEVVGLRSDMAVEAGAPYAERLASGELRLSKEGTDRYRMVVGGAQAGDSGTYHCTAAEWIQDPDGSWVQVAEKRAVLAHVDVQTLSSQLAVTVGPGERRIGPGEPLELLCNVSGALPPPGRHAAYSVGWEMAPAGAPGPGRLVAQLDTEGIGSLGPGYEDRHIAMEKVASRTYRLRLEAARPADAGTYRCLAKAYVRGSGTRLREAASARSRPLPVHVREEGVVLEAVAWLAGGTVYRGETASLLCNISVRGGPPGLRLAASWWVERPEEGELSSGPAQLVGGVGQDGVAELGVRPGGGPVSVELVGPRSHRLRLHGLGPEDEGIYHCAPSAWVQHADYSWYQAGSARSGPVTVYPYTHAVDTLFVPLLVGTGVALVTGASVLATITCCFMKRMRKR
With B1 as the binder, how does the binding (Nb776 (llama)) read?
The binding was “binds”.

What about the binding (Nb777 (llama)) of the same binder?
Its binding is “binds”.
